Test results from paper PMC13064919, “Novel extracellular vesicle release pathway facilitated by toxic superoxide dismutase 1 oligomers” (Neurobiology of disease, 2026).

The chains behind the UniProt entries cited, without tags or fusion partners.
UniProt Q9WUK4: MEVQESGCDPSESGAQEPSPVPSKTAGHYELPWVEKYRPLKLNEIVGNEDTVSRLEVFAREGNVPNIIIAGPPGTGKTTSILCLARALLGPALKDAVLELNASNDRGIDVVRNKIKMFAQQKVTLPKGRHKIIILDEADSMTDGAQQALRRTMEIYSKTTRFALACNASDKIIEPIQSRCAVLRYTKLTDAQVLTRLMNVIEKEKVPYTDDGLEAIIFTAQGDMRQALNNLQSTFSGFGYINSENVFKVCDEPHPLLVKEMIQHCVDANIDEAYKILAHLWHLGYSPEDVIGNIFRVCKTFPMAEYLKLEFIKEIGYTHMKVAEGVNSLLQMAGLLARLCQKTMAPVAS

Experiments:
[1] = target: T1, Stathmin-2 (mouse (endogenous in NSC-34)) (UniProt P55821); test: condition: only in cells overexpressing WT SOD1 instead of FH SOD1; affinity purification with mass spectrometry; as a1, but RIPA lysate of NSC-34 cells overexpressing WT SOD1 (control)
T1 sequence: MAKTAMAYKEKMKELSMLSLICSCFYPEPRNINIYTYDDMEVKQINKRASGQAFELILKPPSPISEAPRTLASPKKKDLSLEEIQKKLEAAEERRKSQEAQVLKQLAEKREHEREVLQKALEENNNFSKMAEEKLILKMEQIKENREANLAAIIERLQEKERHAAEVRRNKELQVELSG

[2] = target: Valosin-containing protein (VCP) (mouse (endogenous in NSC-34)) (UniProt Q01853); test: as above
[3] = target: T1, Stathmin-2 (mouse (endogenous in NSC-34)); test: affinity purification with mass spectrometry; RIPA lysate of NSC-34 cells overexpressing FH (F20L/H46Q, trimer-stabilising) SOD1; antibody to VAPB, VCP or Stathmin-2 overnight at 4 °C, Protein G magnetic beads 2 h at room temperature, washed three times with 1x PBS, on-bead trypsin digestion, shotgun mass spectrometry
[4] = target: Valosin-containing protein (VCP) (mouse (endogenous in NSC-34)) (UniProt Q01853); test: as above

binding [1]: no binding | binding [2]: no binding | binding [3]: binds | binding [4]: binds
Substance: Replication Factor C subunit 2 (Rfc2) (from UniProt Q9WUK4 1-349)

These are yes or no findings as the source states them, for the method shown. Binding seen in cells or lysates may run through a third protein. A yes stands for co-enrichment or nearness to the bait. Other partners may have been found. For some of these results: No binding means not detected with the bait.
